The target of this experiment is OsASR5 (abscisic acid, stress and ripening protein 5), BD (GAL4-binding domain)-OsASR5 fusion (rice (Oryza sativa L. ssp. japonica)) (UniProt Q53JF7). In words: two-hybrid; homodimerisation test of OsASR5 in yeast (Figure S8).

These are yes or no findings as the source states them, for the method shown. Sequences can lack the tags named with a protein.

B1: OsASR5 (abscisic acid, stress and ripening protein 5), BD (GAL4-binding domain)-OsASR5 fusion (protein, UniProt Q53JF7 1-138)
chain: MAEEKHHHHLFHHKKDDEPATGVDSYGEGVYTSETVTTEVVAGGQDEYERYKKEEKQHKHKQHLGEAGALAAGAFALYEKHEAKKDPENAHRHKITEEIAATAAVGAGGYAFHEHHEKKKDHKSAEESTGEKKHHLFG
Consider B1, for which the binding entry is recorded as “no binding”.

The values are drawn from publication PMC5258865.
